# Screening data, single-dose tests

Protein sequences, listed by entry. Tags and fused reporters are not part of them. Residues count along the entry.
UniProt P9WPC5, whole entry: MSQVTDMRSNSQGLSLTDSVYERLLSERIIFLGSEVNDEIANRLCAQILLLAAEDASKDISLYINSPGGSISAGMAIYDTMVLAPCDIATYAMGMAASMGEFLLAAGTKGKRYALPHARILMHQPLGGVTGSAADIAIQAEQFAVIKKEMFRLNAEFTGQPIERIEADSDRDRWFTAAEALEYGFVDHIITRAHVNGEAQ
UniProt P9WPC3, whole entry partner: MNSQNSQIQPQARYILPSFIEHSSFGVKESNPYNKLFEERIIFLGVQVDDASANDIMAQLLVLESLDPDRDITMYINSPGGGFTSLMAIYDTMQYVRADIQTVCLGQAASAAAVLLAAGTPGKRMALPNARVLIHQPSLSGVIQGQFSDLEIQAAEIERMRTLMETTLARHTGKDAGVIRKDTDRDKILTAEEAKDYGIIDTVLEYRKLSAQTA
UniProt A4I591, 1-473: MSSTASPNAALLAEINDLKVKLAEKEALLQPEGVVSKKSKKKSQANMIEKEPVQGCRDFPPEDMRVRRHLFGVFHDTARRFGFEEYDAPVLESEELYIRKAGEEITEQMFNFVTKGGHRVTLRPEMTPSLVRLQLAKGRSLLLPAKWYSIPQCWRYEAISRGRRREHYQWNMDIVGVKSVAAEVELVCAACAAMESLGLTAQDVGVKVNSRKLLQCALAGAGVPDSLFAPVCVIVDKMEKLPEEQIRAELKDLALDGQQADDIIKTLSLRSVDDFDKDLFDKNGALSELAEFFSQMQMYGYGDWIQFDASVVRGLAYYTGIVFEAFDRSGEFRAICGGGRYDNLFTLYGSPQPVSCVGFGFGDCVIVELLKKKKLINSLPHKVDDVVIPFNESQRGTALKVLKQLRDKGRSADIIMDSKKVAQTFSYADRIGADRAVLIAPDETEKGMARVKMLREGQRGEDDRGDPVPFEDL

Source: ChEMBL document CHEMBL3988442, “University of Dundee, Small-Polar-MMV Screening Library” (2021).

A: 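ClpP1P2, Mycobacterium tuberculosis (UniProt P9WPC5 and UniProt P9WPC3). Protease assay of ClpP1P2, read by the AMC dye that it sets free. Tested at 50 µM. Higher reads as stronger inhibition, judged from the few compounds that gave an IC50. Most other retested compounds had strongly negative values. Size under these conditions: about 69,000 compounds, about 10 of them at 50% or above in at least one test.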
B: 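Histidine-tRNA ligase, Leishmania infantum (UniProt A4I591). Enzyme assay of histidyl-tRNA synthetase; the read-out is not stated. Concentration: 30 µM. Direction is inferred from retests: higher values go with stronger inhibition. The assay is labelled LdHisRS but filed under L. infantum. Size under these conditions: about 69,000 compounds, about 410 of them at 50% or above in at least one test.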

Values are the deposited “Percent Effect”, in %.
The controls that fix the scale are not given in the record; negative values are as filed.
Compounds were drawn at random from those tested, without regard to their results.

CC(=O)NC1CCN(c2cc(C3CCNCC3)nc(C)n2)C1 (centres undefined) gave A: -7.394%; B: 6.838%.
CC(C)c1n[nH]c(C(=O)NC(C)c2ccncc2)c1Br (centres undefined) gave A: -7.216%; B: 5.357%.
FC(F)(F)c1cc(C2CCCN(Cc3ccncc3)C2)n[nH]1 (centres undefined) gave A: -8.464%; B: 8.889%.
CCCNC(=O)C1(CC2CC(c3ccccc3OC)=NO2)CCOCC1 (centres undefined) gave A: -15.13%; B: 7.368%.
CC(C)OCCCNC(=O)c1ccc(-c2ccco2)[nH]c1=O gave A: -29.45%; B: 26.19%.
c1cc(-c2c[nH]c([C@@H]3COCCN3CC3CC3)n2)ccn1 gave A: -1.874%; B: 18.92%.
O=C(c1ccc2c(c1)CCCC2)N1CCN(c2cnccn2)CC1 gave A: -32.1%; B: 17.59%.
Cc1cc(NC(=O)N(C)C2CCN(c3ccccc3F)C2=O)n(C)n1 (centres undefined) gave A: -2.754%; B: 15.52%.
CC(C)c1cnc(CN(C)C2CCN(CCc3ccccn3)C2)o1 (centres undefined) gave A: 13.65%; B: 15.87%.
COCC1CN(Cc2ccoc2)Cc2cn(C)nc21 (centres undefined) gave A: 3.074%; B: 13.16%.
Cc1cc(C(=O)N2CCc3[nH]nc(-c4ccc5c(c4)OCO5)c3C2)no1 gave A: -2.325%; B: 9.211%.
COCC(=O)N1CCC2(CC1)CC(OC)CO2 (centres undefined) gave A: -8.393%; B: 18.8%.
c1cnc(N2CCN(CCn3ccnc3-c3c[nH]cn3)CC2)nc1 gave A: -3.274%; B: 8.197%.
COc1ccccc1C(=O)NC(c1ccccn1)[C@H]1CC[C@H](CN)CC1 (some centres undefined) gave A: 9.982%; B: 88.41%.
CCc1nc(C2CCCN2Cc2nnc(C3CCC3)o2)no1 (centres undefined) gave A: -12.05%; B: 18.35%.
O=C(c1c[nH]c(=O)[nH]c1=O)N1CCCC(c2nccn2CC2CCC2)C1 (centres undefined) gave A: -0.1695%; B: 20.48%.
CC(O)C1CCN(c2cc(Cl)ccc2C#N)CC1 (centres undefined) gave A: -23.12%; B: 0%.
CCCc1nnc(N2CCN(Cc3ccccc3OC)CC2)o1 gave A: 18.05%; B: 9.574%.
CCc1noc(CS(=O)(=O)Cc2ccccc2Cl)n1 gave A: 2.006%; B: 14.53%.
CN1CCC(Cc2cnc3ccccc3c2)C1 (centres undefined) gave A: -0.6075%; B: 29.79%.
COc1ccccc1CNc1ccc2nncn2n1 gave A: 6.076%; B: 16.48%.
Cc1nnc(N2CCCC3(CN(Cc4ccc(C)s4)CCO3)C2)o1 (centres undefined) gave A: -5.298%; B: 3.81%.
Cc1cccc(N(C)Cc2cc(=O)n3oc(C)cc3n2)c1 gave A: -5.951%; B: 8.85%.
CC(C)CNC(=O)CSc1nnc(OC(C)C)s1 gave A: 4.895%; B: 19.18%.
CC(C)Cc1noc(CN2CCCN(C(=O)c3cccc(Cl)c3)CC2)n1 gave A: -23.3%; B: 16%.
CCN(CC)S(=O)(=O)NCC1Cc2ccccc2O1 (centres undefined) gave A: -0.7403%; B: -5.181%.
NC(=O)c1cccc(CC2CCN(C(=O)CO)C2)c1 (centres undefined) gave A: 3.412%; B: 17.31%.
CC1CCC(NS(=O)(=O)CC(=O)Nc2ccccc2N2CCCC2)CC1 (centres undefined) gave A: -0.3352%; B: 29.58%.
Cc1cnc(CNc2c(F)cccc2-n2cccn2)o1 gave A: 2.483%; B: 6.731%.
CCc1nnc(CN2CCC(C3CCCCCN3C(C)=O)CC2)o1 (centres undefined) gave A: 17.05%; B: 10.26%.
CN(CC(=O)Nc1ccc(Br)cn1)C(=O)Cc1ccc(O)cc1 gave A: -8.433%; B: 14.86%.
Cc1cncc(C2CCN(C(=O)CCc3ccnn3C)CC2)n1 gave A: -1.412%; B: 7.368%.

3 of the entries, repeated:

Compound,A,B
O=C(c1c[nH]c(=O)[nH]c1=O)N1CCCC(c2nccn2CC2CCC2)C1 (centres undefined),-0.1695,20.48
CC(C)CNC(=O)CSc1nnc(OC(C)C)s1,4.895,19.18
CCc1nnc(CN2CCC(C3CCCCCN3C(C)=O)CC2)o1 (centres undefined),17.05,10.26